Measured values reported in PMC6010280.

T1: intein-BHMT (betaine homocysteine S-methyltransferase) (R. norvegicus) (UniProt O09171)
T1 sequence: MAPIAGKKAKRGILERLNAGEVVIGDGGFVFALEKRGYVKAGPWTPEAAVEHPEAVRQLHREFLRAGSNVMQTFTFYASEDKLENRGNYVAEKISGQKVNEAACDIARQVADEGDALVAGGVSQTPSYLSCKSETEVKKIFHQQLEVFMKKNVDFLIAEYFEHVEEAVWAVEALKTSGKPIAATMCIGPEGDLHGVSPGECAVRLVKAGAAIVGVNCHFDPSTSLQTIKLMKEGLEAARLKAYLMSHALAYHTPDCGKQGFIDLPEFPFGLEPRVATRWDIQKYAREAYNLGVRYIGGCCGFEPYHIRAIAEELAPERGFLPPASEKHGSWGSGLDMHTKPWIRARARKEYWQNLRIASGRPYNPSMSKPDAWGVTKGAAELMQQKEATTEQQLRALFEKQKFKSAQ

B1: Methionine adenosyltransferase 2 subunit beta, MATβ (protein, UniProt Q5U2R0 1-334)
chain: MVGREKELSIHFVPGCCQLVEEEVNIPSRRVLITGATGLLGRAVYKEFQQSNWHAVGCGFRRARPKFEQVNLLDSEAVHHLIHDFQPHVIVHCAAERRPDVVESQPDAASQLNVGASGNLAKEAAAIGAFLIYISSDYVFDGTNPPYTEEDIPSPLNLYGKTKLDGEKAVLENNLGAAVLRIPVLYGEVEKLEESAVTVMFDKVQFSNKSANMDHWQQRFPTHVKDVASVCRQLAEKRMLDPSIKGTFHWSGNEQMTKYEMACAIADAFNLPSSHLRPITDSPVIGAQRPKNAQLDCSKLETLGIGQRTPFRIGIKESLWPFLIDKRWRQTVFH
B2: Nuclear pore complex protein Nup107 (protein, UniProt P52590 1-926)
chain: MDRSGFGGMSSPVIRDPEVTRTARKHSAHKRVLIQANQDENFGTTTPRSQIIPRTPSSFRQPFTPPSRSLLRHPDISYIFGTEGRSPRHIQSSGYLGNLSMVTNLDDSNWAAAFSSQRLGFYTNTEHHSMTEDINLSTVMLREDDPGEAASMSMFSDFLQSFLKHSSTTVFDLVEEYENICASQVNILSKIVSRATRWDWQKFSKTASMLWLLQQEMVTWRLLASLYRDRIQSSLEEENMFAIAGINASEKTVVEALFQRDSLVRQSQLVVDWLESIAKDEIGDFSDNIEFYAKSVYWENTLHSLKQRQLLSYIGSTRPLVTELDPDAPIRQKMPLDDLDREDEVRLLKYLFTLIRAGMTEEAQRLCKRCGQAWRAATLEGWKLHHDPNVNGGTELEPVEGNPYRRIWKISCWRMAEDELFNKYERAIYAALSGNLKQLLPVCDTWEDTVWAYFRVMVDSLVEQEIRTSVMTLDETEELPREYMEANWTLEKVFEELQATDKKRVLEENQEHYHVVQKFLILGDIDGLMDEFSKWLSKSRSSLPGHLLRFMTHLILFFRTLGLQTKEEVSIEVLKTYIQLLINEKHTNLIAFYTCHLPQDLAVAQYALFLEGVTECEQRHQCLELAKEADLDVATITKTVVENIRKKDNGEFSHHDLAPSLDTATTEEDRLKIDVIDWLVFDPAQRAEALRQGNAIMRKFLALKKHEAAKEVFVKIPQDSIAEIYNQWEEQGMESPLPAEDDNAIREHLCIRAYLEAHETFNERFKHMNSAPQKPTLLSQATFTEKVAHEHKEKKYEMDHNIWKGHLDALTADVKEKMYNVLLFVDGGWMVDVREDAEEDPERAHQMVLLRKLCLPMLCFLLHTILHSTGQYQECLQLADMVSSERHKLYLVFSKEELRKLLQKLRESSLMLLDQGLDPLGYEIQS
B3: Heterogeneous nuclear ribonucleoprotein H2 (protein, UniProt Q6AY09 1-449)
chain: MMLSTEGREGFVVKVRGLPWSCSAEEVMRFFSDCKIQNGTSGVRFIYTREGRPSGEAFVELESEDEVKLALKKDRETMGHRYVEVFKSNSVEMDWVLKHTGPNSPDTANDGFVRLRGLPFGCSKEEIVQFFSGLEIVPNGMTLPVDFQGRSTGEAFVQFASQEIAEKALKKHKERIGHRYIEIFKSSRAEVRTHYDPPRKLMTMQRPGPYDRPGAGRGYNSIGRGAGFERMRRGAYGGGYGGYDDYGGYNDGYGFGSDRFGRDLNYCFSGMSDHRYGDGGSSFQSTTGHCVHMRGLPYRATENDIYNFFSPLNPMRVHIEIGPDGRVTGEADVEFATHEDAVAAMAKDKANMQHRYVELFLNSTAGTSGGAYDHSYVELFLNSTAGASGGAYGSQMMGGMGLSNQSSYGGPASQQLSAGYGGGYGGQSSMSGYDQVLQENSSDYQSNLA
B4: C1QBP Complement component 1 Q subcomponent-binding protein, mitochondrial (protein, UniProt O35796 72-279)
chain: LHTEGDKAFVEFLTDEIKEEKKIQKHKSLPKMSGDWELEVNGTEAKLLRKVAGEKITVTFNINNSIPPTFDGEEEPSQGQKAEEQEPELTSTPNFVVEVTKTDGKKTLVLDCHYPEDEIGHEDEAESDIFSIKEVSFQTTGDSEWRDTNYTLNTDSLDWALYDHLMDFLADRGVDNTFADELVELSTALEHQEYITFLEDLKSFVKSQ
B5: Transglutaminase 2, C polypeptide (protein, UniProt Q9WVJ6 1-686)
chain: MAEELNLERCDLEIQANGRDHHTADLCQQKLVLRRGQRFRLTLYFEGRGYEASVDRLTFGAVTGPDPSEEAGTKARFSLSDDVEEGSWSASVLDQQDNVLSLQLCTPANAPVGQYRLSLETSTGYQGSSFMLGHFILLFNAWCPADDVYLDSEAERREYVLTQQGFIYQGSVKFIKSVPWNFGQFEDGILDACLMLLDVNPKFLKDRSRDCSRRSSPIYVGRVVSGMVNCNDDQGVLLGRWDNNYGDGISPMAWIGSVDILRRWKEHGCQQVKYGQCWVFAAVACTVLRCLGIPTRVVTNYNSAHDQNSNLLIEYFRNEYGELESNKSEMIWNFHCWVESWMTRPDLQPGYEGWQAIDPTPQEKSEGTYCCGPVSVRAIKEGDLSTKYDASFVFAEVNADVVDWIRQSDGSVLKSINNSLVVGQKISTKSVGRDDREDITYTYKYPEGSPEEREVFTRANHLNKLAEKEETGVAMRIRVGDGMSLGNDFDVFAHIGNDTSESRECRLLLCARTVSYNGVLGPECGTEDINLTLDPYSENSIPLRILYEKYSGCLTESNLIKVRGLLVEPAANSYLLAERDLYLENPEIKIRILGEPKQNRKLVAEVSLKNPLSDSLYDCVFTVEGAGLTKEQKSVEVSDPVPAGDAVKVRVDLFPTDIGLHKLVVNFQCDKLKSVKGYRNIIIGPA
B6: Tissue-type transglutaminase (protein, UniProt Q9WVJ6 1-686)
chain: B5 chain
B7: Acetyl-CoA acetyltransferase, mitochondrial (protein, UniProt P17764 31-424)
chain: ASKPTLNDVVIVSATRTPIGSFLGSLASQPATKLGTIAIQGAIEKAGIPKEEVKEVYMGNVIQGGEGQAPTRQATLGAGLPIATPCTTVNKVCASGMKAIMMASQSLMCGHQDVMVAGGMESMSNVPYVMSRGATPYGGVKLEDLIVKDGLTDVYNKIHMGNCAENTAKKLSISREEQDKYAIGSYTRSKEAWDAGKFANEITPITISVKGKPDVVVKEDEEYKRVDFSKVPKLKTVFQKENGTVTAANASTLNDGAAAVVLMTAEAAQRLKVKPLARIAAFADAAVDPIDFPLAPAYAVPKVLKYAGLKKEDIAMWEVNEAFSVVVLANIKMLEIDPQKVNVHGGAVSLGHPIGMSGARIVVHLAHALKQGEFGLASICNGGGGASAVLIEKL
B8: SSBP1 Single-stranded DNA-binding protein, mitochondrial (protein, UniProt P28042 17-151)
chain: ESEVASSLVLERSLNRVQLLGRVGQDPVMRQVEGKNPVTIFSLATNEMWRSGDNEAYQMGDVSQKTTWHRISVFRPGLRDVAYQYVKKGARIFVEGKVDYGEYMDKNNVRRQATTIIADNIIFLSDQAREKPLNG
B9: ENPP6 Ectonucleotide pyrophosphatase/phosphodiesterase family member 6 (protein, UniProt B0BND0 23-419)
chain: HRKLLVLLLDGFRSDYISEDALASLPGFREIVNRGVKVDYLTPDFPSLSYPNYYTLMTGRHCEVHQMIGNYMWDPRTNKSFDIGVNRDSLMPLWWNGSEPLWITLMKARRKVYMYYWPGCEVEILGVRPTYCLEYKNVPTDINFANAVSDALDSLKSGRADLAAIYHERIDVEGHHYGPSSPQRKDALKAVDTVLKYMTQWIQERGLQNDLNVILFSDHGMTDIFWMDKVIELSKYISLDDLQQVKDQGPVVSLWPVPEKHSEIYHKLRTVEHMTVYEKEAIPNRFYYKKGKFVSPLTLVADEGWFIAESREALPFWMNSTGKREGWQHGWHGYDNELMDMRGIFLAFGPDFKSNFRAAPIRSVDVYNIMCNVVGITPLPNNGSWSRVVCMLKSQTS
B10: NADPH oxidase 3 (protein, UniProt Q672K1 1-568)
chain: MPTCWILNESVSFVVALLWLAINIYLFIDTFCWYAEEESFFYTRVILGSALAWARASAVCLNFNCMLILLPVSRNFVSLVRGTSVCCRGPWRRQLDKNLKFHKLVAYGIAVNSVIHIVAHLFNLERYHLGQAKDAEGLLAALSKLGNAPNESYLNPVRTLYTGTTTQLLMTVSGITGLVISLALILIMTSSTEFIRQSSYELFWYTHHIFIFLFISLAIHGGGRIIRGQTPESLRLHNVTFCRDHFDEWQEAASCPVPQFSGKEPSAWKWTLGPVVLYACEIIIRFWRSHQEVVITKVVSHPSAVLELHMKKRDFKMAPGQYIFIQCPSISPLEWHPFTLTSAPQEDFFSVHIRASGDWTEALLKAFGAEGQAPSELCSMPRLAVDGPFGGSLADVFHYPVSVCIATGIGVTPFASLLKSVWYKCCESQSLPGLSKVYFYWICRDAAAFEWFADLLLSLETQMSEQGKAHLLSYHIYLTGWDEYQAIHIALHWDESLDVITGLKQKTFYGRPNWNEEFKQIAYNHPSSSIGVFFCGPKAMSKTLQKMCRLYSSSDPRGVHFYYNKENF
B11: RAB10 Ras-related protein Rab-10 (protein, UniProt P35281 1-200)
chain: MAKKTYDLLFKLLLIGDSGVGKTCVLFRFSDDAFNTTFISTIEIDFKIKTVELQGKKIKLQIWDTAGQERFHTITTSYYRGAMGIMLVYDITNGKSFENISKWLRNIDQHANEDVERMLLRNKCDMDHKRVVPKGKGEQIAREHRIRFFETSAKANINIEKAFLTLPEDILRKTPVKEPNSENVDISSGGGVTGWKSKCC
B12: Keratin, type II cytoskeletal 1 (protein, UniProt Q6IMF3 1-625)
chain: MSFQCSSRSLCRSGGGGGGRNFSSGSAGLVSFQRRSTSSSMRRSGGGGGGRFSGGGFCGSSGGGFGSKSLVNLGGGRSISISVAGGGSSYGGGFGGGSYGGGSFGGGSFGGGVGGGFGGGGFGGGGFGSGGGFGGGRFGGGFGPVCPPGGIQEVTINQSLLQPLNVEVDPQIQKVKSQEREQIKSLNDKFASFIDKVRFLEQQNQVLQTKWELLQQVDTSTRTQNLDPFFESYISNLRRQVDSLKNDQSRMDSELKNMQDLVEEYRTKYEDEINKRTNAENEFVTIKKDVDSAYMNKAELQARVDNLQQDIDFFSTLYQMELSQMQTQISETNVVLSMDNNRTLDLDGIIAEVKAQYDSICQRSKAEAETFYQSKYEELQITAGKHGDSVKNTKMEISELNRVIQRLRSEIDSVKKQISQMQQNISDAEQRGEKALKDAQNKLNEIEDALTQAKEELTRLLRDYQELMNTKLALDMEIATYRKLLEGEEIRMSGECTPNVSVSVSTSHTSMSGTSSRGGGRYGSGGGGGGGTYGGGSRGGSYGGGSGGGSYGGCSSGGGSGGGSYGGGSSGGHRGGSGGGGGSSGGSYGGSSGGGRGGSSSGGGVKSSGSSSVKFVSTTYSRGTN

Biological target: T1, intein-BHMT (betaine homocysteine S-methyltransferase) (R. norvegicus)
Assay: affinity purification with mass spectrometry; intein-BHMT held on chitin beads; rat liver cytosol first passed over a bead-only and an intein column; 10 mM sodium phosphate pH 7.4, 5 mM EDTA, 0.1 mM EGTA, 4°C; bound proteins eluted with a 0-500 mM NaCl gradient (peak at 50-100 mM NaCl); LC-MS/MS; only the target purified

Binder	binding
B1	binds
B2	binds
B3	binds
B4	binds
B5	binds
B6	binds
B7	binds
B8	binds
B9	binds
B10	binds
B11	binds
B12	binds

No constants are given. Whether binding was seen depends on the method and setting. Binding seen in cells or lysates may run through a third protein. Here binding means that the protein was enriched with, or labelled near, the bait; the list need not be complete.
